Source: patent US20170319690A1 (AGENCY FOR SCIENCE TECHNOLOGY AND RESEARCH, published 2017)

B1: anti-PD-L1 antibody clone C4, Fab format (Fab, V domains shown)
VH: QVQLQQSGAEVKKPGSSVKVSCKASGGTFSSYAISWVRQAPGQGLEWMGRIIPILGIANYAQKFQGRVTITADKSTSTAYMELSSLRSEDTAVYYCARGGYGGNSLYAFDIWGQGTMVTVSS
VL: QSVVTQPPSVSAAPGQKVTISCSGSSSNIGNNYVSWYQQLPGTAPKLLIYDNNERLSGIPDRFSGSKSGTSATLGISGLQTGDEADYYCGTWDSSLSVVVFGGGTKLTVL
B2: anti-PD-L1 antibody clone A1, Fab format (Fab, V domains shown)
VH: QVQLQQSGAEVKKPGSSVKVSCKASGGTFSSYAISWVRQAPGQGLEWMGRIIPILGIANYAQKFQGRVTITADKSTSTAYMELSSLRSEDTAVYYCARGGSYGSLYAFDIWGQGTMVTVSS
VL: QSVLTQPPSVSAAPGQRVSISCSGRSSNIASHDVFWYQQLPGTAPKIVMYETNKRPWGIPDRFSGSKSGTSATLDIAGLQTGDEADYYCGAWDSGLTGMLFGGGTKVTVL
notes: Human Fab from a phage display library
B3: anti-PD-L1 antibody clone C2, Fab format (Fab, V domains shown)
VH: B2 VH with M116T
VL: SYELTQPPSVSVAPGKTTRITCGGDNIGRKSVHWYQQRPGQAPLLLVYDDGDRPSGIPDRFSGSNSGNTATLTISGTQAMDEADYYCQAWDSTVVFGGGTRLTVL
notes: as for B2
B4: anti-PD-L1 antibody clone H12, Fab format (Fab, V domains shown)
VH: EVQLVQSGAEVKKPGASVKVSCKASGGTFSSYAISWVRQAPGQGLEWMGRIIPILGIANYAQKFQGRVTITADKSTSTAYMELSSLRSEDTAVYYCARSGHGYSYGAFDYWGQGTL
VL: QSVLTQPPSVSGAPGQRVTISCTGSSSNIGAGYDVHWYQQLPGTAPKLLIYGNSNRPSGVPDRFSGSKSGTSASLAITGLQAEDEADYYCQSYDSSLSGSYVVFGGGTKLTVL

The binders below were run against human Fc (the Fc part coupled to PD-L1) (human) (assay: ELISA; plate coated with human Fc, Fab added (concentration not given), goat anti-human Fab-HRP/TMB, absorbance 450-670 nm).

Binder	binding
B1	no binding
B2	no binding
B3	no binding
B4	no binding

Each binder was assayed against human Fc (the Fc part coupled to PD-L1) (human) (assay: ELISA, antigen coated, Fab detected with anti-human Fab-HRP).

Binder	binding
B1	no binding
B2	no binding
B3	no binding
B4	no binding

Where a chain is given by its changes, count along the chain named. Results are given in words; binding and its absence hold for the method and conditions named.
